Assay results taken from publication PMC5833644.
These are yes or no findings as the source states them, for the method shown.

Target: T1, MUC13 (human (endogenous in HPAF-II and AsPC1)) (UniProt Q9H3R2)
T1 sequence: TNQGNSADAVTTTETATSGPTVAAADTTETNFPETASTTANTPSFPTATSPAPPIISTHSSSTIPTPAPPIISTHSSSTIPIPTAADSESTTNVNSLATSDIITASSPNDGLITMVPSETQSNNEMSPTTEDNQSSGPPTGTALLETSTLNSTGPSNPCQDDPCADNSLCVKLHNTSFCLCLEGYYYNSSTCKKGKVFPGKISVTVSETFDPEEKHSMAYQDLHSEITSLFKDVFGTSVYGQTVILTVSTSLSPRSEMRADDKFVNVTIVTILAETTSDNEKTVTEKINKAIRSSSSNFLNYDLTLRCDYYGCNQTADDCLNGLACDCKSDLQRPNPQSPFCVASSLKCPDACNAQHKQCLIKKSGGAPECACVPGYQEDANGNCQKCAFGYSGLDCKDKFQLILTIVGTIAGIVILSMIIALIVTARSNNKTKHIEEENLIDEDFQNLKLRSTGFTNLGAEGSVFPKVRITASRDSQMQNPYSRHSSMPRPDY
Assay: co-capping assay; HPAF-II and AsPC1 cells incubated with NHS-Rhodamine-labeled anti-MUC13 mAb (30 µg/ml) 1 h at 4 °C, plated at 37 °C for about 2 h, then stained for Glut-1 or α-tubulin; confocal microscopy

“alpha-tubulin (human (endogenous in HPAF-II))” was tested, and the binding was “no binding”.
